Laboratory results as given in PubChem BioAssay AID2417 (National Center for Advancing Translational Sciences (NCATS), 2010).
In all, about 140,000 compounds went through this assay and about 4,300 (3.1%) were called active. Inconclusive results, whose numbers are uncertain, are shown with a selection of clear calls.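 Rule for the calls: active = readout at or below -70, meaning at least 70% loss of cells showing the perinucleolar compartment, a nuclear body marking cancer cells; inconclusive = readout between -30 and a set limit; inactive = the rest.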

Experiment: High Content Assay for Compounds that inhibit the Assembly of the Perinucleolar Compartment;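 note: plate controls were DMSO wells for no effect and camptothecin positive control wells for full effect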
Settings: PC3M PTB-GFP, PNC prevalence imaging, 16 h; at 10 µM; hits give low values
Procedure, shortened: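 Read-out is percentage of cells bearing a perinucleolar compartment, from automated 20x imaging of fixed, Hoechst-stained PC3M PTB-GFP cells. Cells were seeded 4 h, then exposed 16 h to compound (23 nl of library stock) in duplicate plates.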

SMILES	activity change (PNC), negative = inhibition
CCCC(=O)Nc1ccccc1NC(C)=O	inconclusive: -34.5%
Cc1ccc2nc(-c3cccnc3SCC(=O)N3c4ccccc4CC3C)[nH]c2c1 (stereo not drawn)	inconclusive: -45.4%
S=c1[nH]nc(CCc2ccc(Cl)cc2)o1	inactive: 58%
CCN(CC)C(=O)c1sc(NC(=O)c2cc(-c3ccc(C)s3)nc3ccccc23)c(C(=O)OC)c1C	inconclusive: -34.6%
Cc1ccc(C2CC(c3ccccc3)=NN2C(=S)Nc2ccccc2)o1 (stereo not drawn)	active: -87.7%
CCN(CC)c1ccc2cc(-c3nc4ccccc4[nH]3)c(=O)oc2c1	active: -104%
Cc1cccc(NC(=O)Cn2nc(C(F)(F)F)cc2C2CC2)c1	inactive: -22.4%
CCn1c(O)c(N=NC(=O)CNC(=O)c2ccco2)c2ccccc21	inactive: 19%
O=C(Nc1ccccc1)c1nc2ccccc2s1	inconclusive: -61.1%
Cc1n[nH]c(=S)c2nn(-c3cccc(Cl)c3)c(C)c12	inactive: -8.28%
Cc1nn(C)cc1/C=N/NC(=S)Nc1ccc(Cl)cc1Cl	inconclusive: -36.2%
Cn1c(=O)n(C)c2cc(C(N)=O)ccc21	inconclusive: -46.6%
O=C(NCCCn1ccnc1)Nc1ccc(Cl)cc1Cl	active: -114%
CC(C)(C)NCc1cc2ccccc2[nH]c1=O	inactive: -11.2%
COc1ccc([N+](=O)[O-])cc1NC(=O)c1ccc(N(Cc2ccccc2Cl)S(C)(=O)=O)cc1	inconclusive: -32.8%
Cc1ccnc(NC(=O)COc2c(C)cc(C)cc2[N+](=O)[O-])c1	inconclusive: -31.5%
O=C(Nc1ccccc1C(=O)N1CCCC1)c1ccccc1	active: -119%
O=C(Nc1cccc(-c2nnc(-c3ccccc3)o2)c1)c1ccc(Br)o1	inconclusive: -39.8%
CCC(C)NCC(=O)Nc1sc2c(c1C(N)=O)CCC2 (stereo not drawn)	inactive: 22.2%
COC(=O)C1=C(C)N(c2ccc(Br)cc2)C(=O)/C1=C\c1ccco1	active: -80.8%

SMILES	activity change (PNC), negative = inhibition
CCOC(=O)C1CCCN(c2cc(=O)n(Cc3ccc(F)cc3)c(=O)[nH]2)C1 (stereo not drawn)	inactive: 6.57%
COC(=O)c1ccccc1NC(=O)CSc1nc(-c2ccco2)cc(C(F)(F)F)n1	active: -82.1%
COc1ccccc1N(C)S(=O)(=O)c1ccc(C(=O)NC(C)(C)C)cc1	inconclusive: -33.1%
CCn1c(SCC(=O)Nc2ccc3c(c2)OCCO3)nc2c(c1=O)SC(C)C2 (stereo not drawn)	inconclusive: -35.1%
CC(C)n1cc(/C=C2/NC(=O)N(c3cccc(Cl)c3)C2=O)c2ccccc21	active: -100%
CCc1ccccc1N(CC(=O)O)S(C)(=O)=O	inconclusive: -42%
COc1ccc(N2CCN(S(=O)(=O)c3cccc(C(F)(F)F)c3)CC2)cc1	inconclusive: -42%
COc1ccc(NC(=O)CSc2nc3[nH]ncc3c(=O)n2-c2ccccc2C)cc1OC	inconclusive: -36.9%
NNC(=O)CCc1c[nH]c2ccccc12	inconclusive: -70.9%
CC(=O)c1ccc2c(c1)Cc1cc(C(C)=O)ccc1-2	inconclusive: -44.4%
CCc1cc(=O)oc2cc(OCC(N)=O)c(Cl)cc12	inconclusive: -47%
Cc1ccccc1CSc1nnc(-c2ccccn2)n1N	inconclusive: -40.2%
Cc1ccccc1-n1nc(C)c2cc(C(=O)NC3CC3)sc21	inconclusive: -56.6%
C/C(=N\NC(=O)CSCc1ccccc1Br)c1cccc([N+](=O)[O-])c1	inconclusive: -50.5%
COc1ccc(OC)c(S(=O)(=O)N(C)CC(=O)N2CCN(c3cccc(Cl)c3)CC2)c1	inconclusive: -65.8%
O=[N+]([O-])c1cc([N+](=O)[O-])c2cccnc2c1Oc1ccccc1O	inactive: 27.9%
CCOC(=O)C(NC(=O)CC)(Nc1sc(C)c(CC)c1C#N)C(F)(F)F (stereo not drawn)	inconclusive: -34.5%
Cc1ccc(OS(=O)(=O)c2ccccc2)c(/C=N/N=C2\NC(=O)C(C)S2)c1 (stereo not drawn)	active: -81.9%
Cc1nc(Nc2ccc(S(=O)(=O)N3CCCCC3C)cc2)c2nnn(Cc3ccccc3)c2n1 (stereo not drawn)	inactive: -28.8%
COc1ccc(-c2nnc(SCC(=O)N3CCCc4ccccc43)o2)cc1OC	inconclusive: -30.9%

SMILES	activity change (PNC), negative = inhibition
O=C(CN1CCCc2ccccc21)NC(=O)NCc1ccco1	inactive: 17.5%
Cc1cc(O)ccc1N/C=C(\C#N)c1nc2ccccc2o1	inactive: -4.6%
Cn1c(C(=O)Nc2ccc3c(c2)OCCO3)cc2c(=O)n(C)c3ccccc3c21	inactive: 18.9%
Cn1c(Oc2ccccc2NCc2cc(Br)ccc2O)cc(=O)n(C)c1=O	inconclusive: -46.7%
CCCN1Cc2cccc(C(=O)NC(C)c3cccs3)c2C1=O (stereo not drawn)	inactive: -12.7%
O=C(CSc1nn(-c2ccc(Cl)cc2)c(=S)s1)N1CCN(C(=O)c2ccco2)CC1	inconclusive: -55.5%
CN(Cc1ccccc1)C(=O)Nc1ccccc1	inconclusive: -34.5%
CCOc1ccc(C(=O)Nc2ccc3c(c2)OCCO3)cc1OC	inconclusive: -41%
CCOc1nc(NC(C)C)nc(NC(C)C)n1	inactive: 10.8%
Cn1sc(NC(=O)c2ccc(Cl)cc2)nc1=O	inactive: -8.26%
O=C(CN1C(=O)NC2(CCCc3ccccc32)C1=O)Nc1cccc(S(=O)(=O)N2CCCCC2)c1 (stereo not drawn)	inconclusive: -50.5%
Cc1ccc(-c2[nH]c(-c3ccccc3)nc2SCC(=O)NCC2CCCO2)cc1 (stereo not drawn)	inconclusive: -53.4%
Cn1c(Cc2ccccc2)nnc1SCc1ccc(C(=O)O)cc1	inactive: -10.5%
CC(=O)N1CCc2cc(S(=O)(=O)NCCC(=O)N3CCN(c4ccccn4)CC3)ccc21	inactive: 12%
O=c1c2ccccc2nc(SCc2cn3ccsc3n2)n1-c1ccccc1	inconclusive: -45.9%
O=C(CNS(=O)(=O)c1cccc2nsnc12)NC1CCCCC1	active: -111%
COc1ccc(CNC(=O)c2cc3c(=O)n4ccccc4nc3n(Cc3cccnc3)c2=N)cc1	inconclusive: -48.6%
Cc1ccc(OCCSc2nnc(NC(=O)c3ccco3)s2)cc1	inconclusive: -40.7%

Looked up above:
In activity change (PNC), negative = inhibition, O=C(CNS(=O)(=O)c1cccc2nsnc12)NC1CCCCC1 reads active: -111%
In activity change (PNC), negative = inhibition, Cc1ccc(-c2[nH]c(-c3ccccc3)nc2SCC(=O)NCC2CCCO2)cc1 (stereo not drawn) reads inconclusive: -53.4%
